Data as given in PubChem BioAssay AID1259308 (NCATS, 2017).

Screen: 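Candidate targets for better recombinant protein yield in mammalian cells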 (primary screen)
System: human HEK293 embryonic kidney cells stably expressing firefly luciferase (HEK-CMV-Luc2-Hygro)
Reagent: single siRNA against human genes, 0.8 pmol siRNA per well
Duration: 72 h
Measurement: 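Luciferase light (ONE-Glo) measured on one replicate plate set and viability (CellTiter-Glo) on the other, scaled to a negative control siRNA, with robust z-scores and luciferase per cell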
Scale: total luciferase, z-score: higher = more reporter protein produced
Call rule: 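Active when the median/MAD z-score for overall luciferase is greater than 3; a gene was taken forward for validation with new siRNAs if at least two of its three siRNAs passed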
Meaning of the calls: active = raised luciferase; inactive = no rise
The deposit covers about 59,000 reagents; below is an unselected part. About 1,510 of them (2.6%) were called active. 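Calls use total luciferase alone and ignore viability, so some active siRNAs may act by altering cell number.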 The numbers tell different reagents against one gene apart. Not all columns of the deposit are shown.

ALDOA #1 | total luciferase, z-score: 0.601; Outcome: inactive
ALDOA #2 | total luciferase, z-score: 0.3; Outcome: inactive
ALDOA #3 | total luciferase, z-score: -0.629; Outcome: inactive
RGS10 #1 | total luciferase, z-score: 2.18; Outcome: inactive
RGS10 #2 | total luciferase, z-score: 0.357; Outcome: inactive
RGS10 #3 | total luciferase, z-score: -0.401; Outcome: inactive

Ordered by “total luciferase, z-score” (low to high): 2 of the entries above
ALDOA #2 | total luciferase, z-score: 0.3; Outcome: inactive
ALDOA #1 | total luciferase, z-score: 0.601; Outcome: inactive

Continued.
PTTG1 #1 | total luciferase, z-score: -0.789; Outcome: inactive
PTTG1 #2 | total luciferase, z-score: 1.52; Outcome: inactive
PTTG1 #3 | total luciferase, z-score: 0.12; Outcome: inactive
ADAM19 #1 | total luciferase, z-score: -2.26; Outcome: inactive
ADAM19 #2 | total luciferase, z-score: 0.0466; Outcome: inactive
ADAM19 #3 | total luciferase, z-score: 0.312; Outcome: inactive
